In PMC5707448, “Luminescent platinum(II) complexes with self-assembly and anti-cancer properties: hydrogel, pH dependent emission color and sustained-release properties under physiological conditions” (Chemical Science, 2015):

Legend:
HeLa cells [1] = experiment: Cell imaging by fluorescence microscopy (cellular uptake); format: cell-based, human; conditions: 10 μM, 20 min
HeLa cells [2] = experiment: Co-localization study by confocal microscopy; format: cell-based, human; conditions: 10 μM, 1 h

Row | Structure (SMILES) | Cellular uptake (green emission in cytoplasm) (HeLa cells [1]) | Pearson's coefficient R, green and orange emission vs Hoechst 33342 (HeLa cells [2]) | Pearson's coefficient R, green and orange emission vs Mitotracker Red (HeLa cells [2]) | Pearson's coefficient R, green emission vs LysoTracker Red (HeLa cells [2]; emission channel 500–550 nm) | Pearson's coefficient R, orange emission vs LysoTracker Red (HeLa cells [2]; emission channel 650–700 nm)
1 | Cc1cccc(C)c1[N+]#[C][Pt-2]12[c]3ccccc3-c3cccc([n+]31)-c1cc[nH][n+]12.[Cl-] (stereo not drawn) [Complex 1a, [Pt(C^N^N^pyr)(C?NR^1)]Cl] | efficient cellular uptake | – | – | – | –
2 | CCCC[N+]#[C][Pt-2]12[c]3ccccc3-c3cccc([n+]31)-c1cc[nH][n+]12.[Cl-] (stereo not drawn) [Complex 2] | efficient cellular uptake | < 0.15 | < 0.15 | 0.60 | 0.75
